{
  "sequences": {"note": "Chains of the proteins cited; added tags and fusions are not shown. Lines headed by an entry give the natural chain unless they say otherwise; changes in a name come on top.", "UniProt P51450": "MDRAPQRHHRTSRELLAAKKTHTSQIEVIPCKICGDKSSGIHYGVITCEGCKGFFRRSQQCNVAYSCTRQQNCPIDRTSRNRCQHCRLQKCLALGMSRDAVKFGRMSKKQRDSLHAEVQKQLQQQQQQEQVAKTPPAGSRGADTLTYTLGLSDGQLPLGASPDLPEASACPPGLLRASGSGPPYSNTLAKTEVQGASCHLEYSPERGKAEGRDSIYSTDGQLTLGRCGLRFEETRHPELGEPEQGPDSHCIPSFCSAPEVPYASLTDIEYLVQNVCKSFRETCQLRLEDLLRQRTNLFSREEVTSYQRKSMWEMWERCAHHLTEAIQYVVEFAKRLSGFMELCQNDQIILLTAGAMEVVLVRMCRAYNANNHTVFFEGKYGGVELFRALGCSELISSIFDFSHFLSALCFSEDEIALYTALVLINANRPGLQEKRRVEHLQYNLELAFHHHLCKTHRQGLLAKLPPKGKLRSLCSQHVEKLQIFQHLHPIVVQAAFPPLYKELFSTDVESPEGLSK"},
  "source": "PubChem BioAssay AID2551",
  "about": "(National Center for Advancing Translational Sciences (NCATS), 2010)",
  "note": "The campaign covered roughly 310,000 compounds. About 17,000 (5.5%) were called active. The inconclusive results got no clear call from the source; some entries with a clear call stand among them for comparison. The call rests on the fitted dose curve; in most records, active means well fitted inhibition curve with a large enough effect; inconclusive means small, poorly fitted or top-dose-only effect, or effect the other way; inactive means no such curve, though single readings can be large or run the other way. Where the call is inconclusive, the potency comes from a doubtful curve fit. On the % scale 0 is the no-effect control and ±100 the full control effect; potency means the concentration at half of the fitted maximal effect.",
  "data": [
    {"target": "Nuclear receptor ROR-gamma (Mus musculus) (UniProt P51450)", "test": "qHTS for inhibitors of ROR gamma transcriptional activity; further: nearly all actives have a fitted effect of over 60% in size", "details": "Drosophila S2 Gal4-RORgamma UAS-luciferase reporter, 20 h; activity change, negative = inhibition: at 53.6 µM (top of the series)", "method_in_brief": "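Drosophila Schneider cells stably carrying a metallothionein-driven Gal4 DBD–ROR gamma fusion and a UAS-Photinus luciferase reporter were exposed to compound for 1 hr, then induced with copper sulfate (700 uM final) for 20 hr at ambient temperature before luminescence reading.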", "values": [
      {"smiles": "CCn1nnc(-c2ccccc2NC(=O)c2ccc(-n3cnnn3)cc2)n1", "Potency": "inconclusive: 0.005 µM [activator, full curve]"},
      {"smiles": "COC(=O)c1ccc(S(=O)(=O)N2CCCN(Cc3cccc(Br)c3F)CC2)n1C", "Potency": "inconclusive: 35.5 µM [activator, single point]"},
      {"smiles": "O=C(CSc1ncnc2scc(-c3ccccc3)c12)N1CCN(c2ccccc2F)CC1", "Potency": "inconclusive: 14.1 µM [activator, single point]"},
      {"smiles": "COC(=S)Nc1cccc(C(F)(F)F)c1", "Potency": "inconclusive: 15.8 µM [inhibitor, single point]"},
      {"smiles": "Cc1ccc(/C=N/NC(=O)c2ccco2)s1", "Potency": "inconclusive: 22.4 µM [inhibitor, single point]"},
      {"smiles": "O=C(CSc1nc2c(sc3ccccc32)c(=O)n1-c1ccccc1)NCc1ccco1", "Potency": "inconclusive: 2.82 µM [activator, full curve]"},
      {"smiles": "C/C(CCc1ccc2c(c1)OCO2)=N\\N=C(/N)SC1CC(=O)N(c2ccc(Cl)cc2)C1=O", "note": "(stereo unspecified)", "Potency": "active: 8.91 µM"},
      {"smiles": "CCC1CCCCN1Cc1nc(Cc2ccccc2Cl)no1", "note": "(stereo unspecified)", "activity change, negative = inhibition": "inactive: -20.8%"},
      {"smiles": "CC(=O)Nc1ccc2nc(NC(=O)c3ccco3)sc2c1", "Potency": "inconclusive: 35.5 µM [inhibitor, single point]"},
      {"smiles": "Cc1ccc(SCCNC(=O)c2ccccc2)cc1", "activity change, negative = inhibition": "inactive: 2.94%"},
      {"smiles": "Cc1ccc(C(=O)Nc2ccon2)cc1S(=O)(=O)N1CCCCCC1", "activity change, negative = inhibition": "inactive: 13.2%"},
      {"smiles": "CCC(=O)NC(c1ccccc1OC)c1ccc2cccnc2c1O", "note": "(stereo unspecified)", "Potency": "active: 5.01 µM"},
      {"smiles": "COC(=O)Cn1c2ccccc2c2nc3ccccc3nc21", "Potency": "inconclusive: 7.94 µM [activator, partial curve, poor fit]"},
      {"smiles": "O=C(Nc1ccc(F)cc1)c1cc(S(=O)(=O)N2CCOCC2)cs1", "Potency": "inconclusive: 14.1 µM [activator, partial curve]"},
      {"smiles": "O=C(O)CCCCCNc1nc(-c2ccccc2)nc2ccccc12", "Potency": "inconclusive: 17.8 µM [activator, single point]"},
      {"smiles": "Cc1ccc(C2CN(c3ccccc3)CC2C(=O)c2ccc(F)cc2)cc1", "note": "(stereo unspecified)", "Potency": "inconclusive: 20 µM [activator, partial curve]"},
      {"smiles": "Cc1c(C(=S)Nc2ccccc2)cnn1-c1ccccc1", "Potency": "inconclusive: 35.5 µM [inhibitor, single point]"},
      {"smiles": "COc1ccc(N2C(=O)C(=O)/C(=C(/O)c3ccc(C)cc3)C2c2cccnc2)cc1", "note": "(stereo unspecified)", "activity change, negative = inhibition": "inactive: -3.12%"},
      {"smiles": "Cc1nn(-c2ccccc2)c(Cl)c1/C=C1\\SC(=S)NC1=O", "Potency": "inconclusive: 35.5 µM [inhibitor, single point]"},
      {"smiles": "COC(=O)c1ccc(OCC(O)CN(CC(C)C)CC(C)C)cc1", "note": "(stereo unspecified)", "Potency": "inconclusive: 35.5 µM [inhibitor, single point]"},
      {"smiles": "CCCCNCc1nc2ccccc2c(=O)[nH]1", "Potency": "active: 10 µM"},
      {"smiles": "Cc1cc2nc(-c3ccc(SCC(=O)Nc4nccs4)nc3)[nH]c2cc1C", "Potency": "inconclusive: 5.01 µM [activator, single point]"},
      {"smiles": "Cc1cccc(/C=C/c2onc(C)c2S(=O)(=O)N2CCC(C(=O)N3CCC(C)CC3)CC2)c1", "activity change, negative = inhibition": "inactive: 11.9%"},
      {"smiles": "C/C(CC(=O)NCc1ccco1)=N\\NC(=O)c1ccc(Cl)cc1Cl", "activity change, negative = inhibition": "inactive: -31.7%"},
      {"smiles": "O=C(Nc1ccc2c(c1)OCCO2)C1CCN(S(=O)(=O)c2ccc3c(c2)OCCO3)CC1", "Potency": "inconclusive: 14.1 µM [activator, single point]"},
      {"smiles": "O=C(Nc1cn(-c2ccccc2)nc1-c1ccc(Cl)cc1)c1ccccc1", "activity change, negative = inhibition": "inactive: 27.3%"},
      {"smiles": "CCc1nc2n[nH]c(N)c2c2c1CSC(C)(C)C2", "Potency": "inconclusive: 31.6 µM [activator, single point]"},
      {"smiles": "COc1ccc2nc(SCC(C)=O)c(C#N)cc2c1", "Potency": "inconclusive: 35.5 µM [inhibitor, single point]"},
      {"smiles": "O=C(N/N=C\\c1cccc(F)c1)c1ccc(Cn2cc(Br)c([N+](=O)[O-])n2)o1", "Potency": "inconclusive: 35.5 µM [activator, single point]"},
      {"smiles": "CCCCN(Cc1ccccc1)S(=O)(=O)c1cc(Br)cc2c1N(C(C)=O)C(C)C2", "note": "(stereo unspecified)", "Potency": "inconclusive: 3.98 µM [inhibitor, full curve, poor fit]"},
      {"smiles": "COc1ccccc1-c1ccc(=O)n(CC(=O)NCc2ccco2)n1", "Potency": "inconclusive: 11.2 µM [activator, single point]"},
      {"smiles": "Cc1cccc(Cn2cccc2/C=C2/C(=N)N3C=CSC3=NC2=O)c1", "Potency": "active: 8.91 µM"},
      {"smiles": "CC(C)(C)NC(=O)NC(=O)COC(=O)C1c2ccccc2Oc2ccccc21", "Potency": "inconclusive: 35.5 µM [activator, single point]"},
      {"smiles": "CC(=O)NCCC(=O)N1CCc2c([nH]c3ccccc23)C1c1cccc(C)c1", "note": "(stereo unspecified)", "activity change, negative = inhibition": "inactive: -0.271%"},
      {"smiles": "Cc1ccc(N2C(S)=C(C#N)C(=O)NC2c2cccs2)cc1", "note": "(stereo unspecified)", "Potency": "inconclusive: 20 µM [inhibitor, single point]"},
      {"smiles": "O=C(COC(=O)Cc1c(Cl)cccc1Cl)Nc1ccccc1-c1ccccc1", "Potency": "inconclusive: 22.4 µM [activator, single point]"},
      {"smiles": "O=C(Nc1ccccc1)c1cc(S(=O)(=O)N2CCSCC2)ccc1Cl", "Potency": "inconclusive: 35.5 µM [activator, single point]"},
      {"smiles": "CC(C)C(=O)NC(c1ccco1)c1ccc2cccnc2c1O", "note": "(stereo unspecified)", "Potency": "active: 2.82 µM"},
      {"smiles": "Cc1ccc(Cl)c(OCC(=O)N2CCc3ccccc3C2)c1", "activity change, negative = inhibition": "inactive: 3.92% [at 1.91 µM]"},
      {"smiles": "O=C(NNC(=S)NCc1ccc(Cl)cc1)c1cccnc1", "Potency": "inconclusive: 15.8 µM [inhibitor, partial curve]"},
      {"smiles": "CCN(CC)CC(=O)c1c[nH]c2ccc(OC)cc12", "activity change, negative = inhibition": "inactive: -6.89%"},
      {"smiles": "COc1ccc(O)c(C(=O)c2cnn(-c3ccc(Cl)cc3)c2)c1", "Potency": "inconclusive: 35.5 µM [activator, single point]"},
      {"smiles": "COc1cccc(CNC(=O)c2ccccc2-c2ccccc2)c1", "Potency": "inconclusive: 14.1 µM [activator, single point]"},
      {"smiles": "COc1ccccc1N1CCN(C(CNC(=O)c2ccco2)c2cccnc2)CC1", "note": "(stereo unspecified)", "Potency": "inconclusive: 3.16 µM [activator, partial curve]"},
      {"smiles": "CS(=O)(=O)Nc1ccc(C(=O)NCc2ccccn2)cc1", "Potency": "inconclusive: 35.5 µM [activator, single point]"},
      {"smiles": "C/C(CC(=O)Nc1ccc(Cl)c(C(F)(F)F)c1)=N\\NC(=O)c1cc2ccccc2cc1O", "Potency": "inconclusive: 22.4 µM [inhibitor, single point]"}
    ]}
  ]
}
